Values from PubChem BioAssay AID743454 (Peter MacCallum Cancer Centre, 2014).
Here is a random part of about 18,000 reagents tested. In the full data, 450 (2.5%) are marked active. 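Single biological run; no consistent viability z cut-off exists, so the class columns, not z-scores, define the calls.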

Screen: 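Search for knock-downs that restore vorinostat killing in resistant colon cancer cells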 (primary screen)
Cells: human HCT116-VR colon cancer cells, selected for vorinostat resistance
Reagents: siRNA pool against human genes, 40 nM siRNA pool
Timing: vorinostat for 24 h, read-out about 72 h after transfection
Treatment: vorinostat at 2.5 µM final
Read-out: 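Cell viability by CellTiter-Fluor and caspase 3/7 activity by luminescence, each scaled to mock wells per plate, duplicates averaged, then robust z-scored over all plates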
Scale: viability robust z-score: higher = more viable cells than screen typical; caspase robust z-score: higher = more caspase 3/7 activity than screen typical
Hit rule: 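Hits are knock-downs in viability class RV1/RV2 or caspase class CA1/CA2, excluding ones that killed cells in the no-drug cell-count arm; hits then retested with single siRNAs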

| target gene | PubChem SID | viability hit class | caspase hit class | viability robust z-score | caspase robust z-score | call |
| --- | --- | --- | --- | --- | --- | --- |
| HTR1B (GeneID 3351) | SID134311073 | no change | no change | 1.31 | -0.36 | inactive |
| SIGLEC6 (GeneID 946) | SID152147291 | no change | no change | 0.6 | -0.06 | inactive |
| E2F5 (GeneID 1875) | SID135620648 | no change | no change | 0.56 | -0.72 | inactive |
| CFAP206 (GeneID 154313) | SID135623517 | no change | no change | -0.1 | -0.3 | inactive |
| TXNDC2 (GeneID 84203) | SID152156067 | no change | no change | -0.69 | 0.68 | inactive |
| BRD9 (GeneID 65980) | SID152147069 | no change | no change | 0.8 | -0.01 | inactive |
| GPX2 (GeneID 2877) | SID134315997 | no change | no change | 0.03 | 2.75 | inactive |
| SLC7A9 (GeneID 11136) | SID152148073 | no change | no change | -0.76 | -0.17 | inactive |
| SCG2 (GeneID 7857) | SID152153279 | no change | no change | 0.44 | -0.6 | inactive |
| LCT (GeneID 3938) | SID134316038 | no change | no change | -0.33 | -0.07 | inactive |
| ZNF43 (GeneID 7594) | SID152154933 | no change | no change | -0.26 | 1.68 | inactive |
| FEZF2 (GeneID 55079) | SID152153394 | no change | no change | -0.09 | 0.26 | inactive |
| REG1B (GeneID 5968) | SID134316578 | no change | no change | -0.1 | -0.08 | inactive |
| XAGE5 (GeneID 170627) | SID134321432 | no change | no change | 0.06 | 0.54 | inactive |
| GYPB (GeneID 2994) | SID135622174 | no change | no change | 0.99 | -0.94 | inactive |
| GPR143 (GeneID 4935) | SID134311116 | no change | no change | 0.94 | -0.26 | inactive |
| SLC7A8 (GeneID 23428) | SID135621420 | no change | no change | 2.22 | -0.45 | inactive |
| LRRC66 (GeneID 339977) | SID152148211 | no change | no change | -0.15 | -1.48 | inactive |
| FCER2 (GeneID 2208) | SID134320242 | no change | no change | -0.1 | -0.44 | inactive |
| PDE1A (GeneID 5136) | SID152152725 | no change | no change | 0.57 | -0.59 | inactive |
| GRIA4 (GeneID 2893) | SID135621158 | no change | no change | 0.19 | -0.36 | inactive |
| GSG1 (GeneID 83445) | SID152149313 | no change | no change | -0.63 | 0.26 | inactive |
| C22orf42 (GeneID 150297) | SID135624461 | no change | no change | -1.32 | -0.76 | inactive |

3 entries from above, ordered by “caspase robust z-score”, descending.
| target gene | PubChem SID | viability hit class | caspase hit class | viability robust z-score | caspase robust z-score | call |
| --- | --- | --- | --- | --- | --- | --- |
| ZNF43 (GeneID 7594) | SID152154933 | no change | no change | -0.26 | 1.68 | inactive |
| LCT (GeneID 3938) | SID134316038 | no change | no change | -0.33 | -0.07 | inactive |
| SCG2 (GeneID 7857) | SID152153279 | no change | no change | 0.44 | -0.6 | inactive |
